Among the data in paper PMC4924684 are binding values, retold here.

Sequences of proteins named here, by UniProt entry; tags and fusion partners are left off. Residues count along the entry.
UniProt P21127, residues 357-795: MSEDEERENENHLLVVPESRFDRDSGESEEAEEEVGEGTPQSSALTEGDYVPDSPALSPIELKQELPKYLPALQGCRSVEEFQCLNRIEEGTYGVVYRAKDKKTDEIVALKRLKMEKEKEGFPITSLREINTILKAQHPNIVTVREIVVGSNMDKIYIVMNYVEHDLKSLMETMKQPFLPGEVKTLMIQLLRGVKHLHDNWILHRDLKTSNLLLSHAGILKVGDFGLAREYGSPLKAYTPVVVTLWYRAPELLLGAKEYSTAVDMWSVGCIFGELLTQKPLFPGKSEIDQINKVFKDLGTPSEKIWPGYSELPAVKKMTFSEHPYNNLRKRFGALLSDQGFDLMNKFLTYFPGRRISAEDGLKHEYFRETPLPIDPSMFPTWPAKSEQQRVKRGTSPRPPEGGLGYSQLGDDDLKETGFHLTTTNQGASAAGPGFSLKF

These are yes or no findings as the source states them, for the method shown. In cells and extracts the contact can be indirect. A yes stands for co-enrichment or nearness to the bait. Other partners may have been found. Tags and fused reporters may be left off the sequences shown.

In the assay the target is T1, GADD45γ-Flag (UniProt O95257).
T1 sequence: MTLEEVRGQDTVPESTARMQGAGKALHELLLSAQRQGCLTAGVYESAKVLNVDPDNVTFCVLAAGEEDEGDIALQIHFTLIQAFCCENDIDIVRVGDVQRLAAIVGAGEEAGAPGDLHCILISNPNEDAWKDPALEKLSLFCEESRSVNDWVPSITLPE
As to the kind of experiment: affinity purification with mass spectrometry; pull-down of GADD45 proteins from HEK 293T cells; eluate on SDS-polyacrylamide gel, prominent bands cut out, trypsin digest, mass spectrometry, ProFound.

With CDK11p58 (from UniProt P21127-12 1-439), the binding result is recorded as “binds”.
